Assay [1] deals with Endogenous YBX1 (Y box binding protein 1) of A549 and H1299 cells (human (endogenous in A549 and H1299)) (UniProt P67809). As to the kind of experiment: co-IP; endogenous proteins, H1299 cell extracts incubated with protein A/G agarose and IgG or YBX1 antibody; five washes with NETN buffer; western blotting.
Assay [2] has as its target Exogenous CDKL1 expressed in A549 and H1299 cells (UniProt Q00532). The experiment in a line: co-IP; exogenous CDKL1 expressed in A549 and H1299 cells; endogenous YBX1 detected.
For assay [3], the target named is SFB-YBX1 (Y box binding protein 1), expressed in HEK293T cells (UniProt P67809). The experiment in a line: co-IP; Flag-tag and Myc-tag plasmids introduced into HEK293T cells; cell extracts incubated with streptavidin (S) beads overnight at 4 °C; five washes with NETN buffer; western blotting.
The target of assay [4] is SFB-CDKL1 (cyclin-dependent kinase-like 1), exogenously expressed in HEK293T cells (UniProt Q00532). Described as above.
The next assay has as its target GST-CDKL1 fusion protein (UniProt Q00532). The experiment in a line: pull-down; GST-only or GST-CDKL1 purified from E. coli incubated overnight with GST beads and proteins extracted from HEK293T cells transfected with SFB-YBX1; five washes; immunoblotting; only the target purified. On the technique in general: A western blot detects proteins with antibodies after separation by electrophoresis.

Protein sequences, listed by entry. Tags and fused reporters are not part of them.
UniProt P67809: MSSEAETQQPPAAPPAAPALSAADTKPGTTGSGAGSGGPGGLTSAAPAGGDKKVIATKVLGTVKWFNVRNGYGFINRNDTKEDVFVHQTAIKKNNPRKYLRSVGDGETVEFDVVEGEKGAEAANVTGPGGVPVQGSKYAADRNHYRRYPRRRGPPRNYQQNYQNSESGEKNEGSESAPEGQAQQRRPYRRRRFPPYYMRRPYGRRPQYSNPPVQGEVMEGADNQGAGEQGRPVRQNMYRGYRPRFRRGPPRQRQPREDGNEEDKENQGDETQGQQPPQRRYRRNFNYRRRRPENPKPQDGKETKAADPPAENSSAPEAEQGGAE
UniProt Q00532: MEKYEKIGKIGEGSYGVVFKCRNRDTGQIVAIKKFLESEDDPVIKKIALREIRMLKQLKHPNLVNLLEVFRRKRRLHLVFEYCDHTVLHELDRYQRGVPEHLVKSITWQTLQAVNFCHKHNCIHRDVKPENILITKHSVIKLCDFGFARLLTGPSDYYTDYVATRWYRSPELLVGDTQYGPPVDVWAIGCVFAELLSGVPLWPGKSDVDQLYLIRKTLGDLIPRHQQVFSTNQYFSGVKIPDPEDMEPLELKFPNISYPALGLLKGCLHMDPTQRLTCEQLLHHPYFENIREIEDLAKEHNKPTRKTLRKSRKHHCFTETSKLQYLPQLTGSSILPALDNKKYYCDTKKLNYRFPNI

These are yes or no findings as the source states them, for the method shown. Binding seen in cells or lysates may run through a third protein. Some results given as binding are weak or reduced against the parent protein; the word gives no strength.

Turning to “Endogenous CDKL1 (cyclin-dependent kinase-like 1) of H1299 cells (from UniProt Q00532 1-357)”, in assay [1], the binding entry is “binds”.
Consider “Endogenous YBX1 (Y box binding protein 1) of A549 and H1299 cells (from UniProt P67809 1-324)”, for which the binding entry in assay [2] is reported as “binds”.
With “Myc-tagged CDKL1 (cyclin-dependent kinase-like 1), exogenously expressed in HEK293T cells (from UniProt Q00532 1-357)”, the binding result in assay [3] is “binds”.
Turning to “Myc-tagged YBX1 (Y box binding protein 1), exogenously expressed in HEK293T cells (from UniProt P67809 1-324)”, the binding entry in assay [4] is given as “binds”.
Take “SFB-YBX1 (Y box binding protein 1), expressed in HEK293T cells (from UniProt P67809 1-324)”: the binding result with GST-CDKL1 fusion protein is “binds”.

Values taken from publication PMC10958935.
